Data: PubChem BioAssay AID504327 (National Center for Advancing Translational Sciences (NCATS), 2011)
About 820 (0.21%) of roughly 390,000 compounds were called active. Inconclusive results, whose numbers are uncertain, are shown with a selection of clear calls. Calls follow the shape of the dose curve; as a rule, active = well fitted inhibition curve with a large enough effect; inconclusive = small, poorly fitted or top-dose-only effect, or another doubt; inactive = no such curve, though single readings can be large or run the other way. Potencies of inconclusive entries are doubtful fits and often do not repeat.
% is scaled to controls: 0 for no effect and ±100 for the full control effect; potency is read from the fitted curve at half-maximal effect.

Protein sequences, listed by entry. Tags and fused reporters are not part of them.
UniProt Q92830, whole entry, looked up: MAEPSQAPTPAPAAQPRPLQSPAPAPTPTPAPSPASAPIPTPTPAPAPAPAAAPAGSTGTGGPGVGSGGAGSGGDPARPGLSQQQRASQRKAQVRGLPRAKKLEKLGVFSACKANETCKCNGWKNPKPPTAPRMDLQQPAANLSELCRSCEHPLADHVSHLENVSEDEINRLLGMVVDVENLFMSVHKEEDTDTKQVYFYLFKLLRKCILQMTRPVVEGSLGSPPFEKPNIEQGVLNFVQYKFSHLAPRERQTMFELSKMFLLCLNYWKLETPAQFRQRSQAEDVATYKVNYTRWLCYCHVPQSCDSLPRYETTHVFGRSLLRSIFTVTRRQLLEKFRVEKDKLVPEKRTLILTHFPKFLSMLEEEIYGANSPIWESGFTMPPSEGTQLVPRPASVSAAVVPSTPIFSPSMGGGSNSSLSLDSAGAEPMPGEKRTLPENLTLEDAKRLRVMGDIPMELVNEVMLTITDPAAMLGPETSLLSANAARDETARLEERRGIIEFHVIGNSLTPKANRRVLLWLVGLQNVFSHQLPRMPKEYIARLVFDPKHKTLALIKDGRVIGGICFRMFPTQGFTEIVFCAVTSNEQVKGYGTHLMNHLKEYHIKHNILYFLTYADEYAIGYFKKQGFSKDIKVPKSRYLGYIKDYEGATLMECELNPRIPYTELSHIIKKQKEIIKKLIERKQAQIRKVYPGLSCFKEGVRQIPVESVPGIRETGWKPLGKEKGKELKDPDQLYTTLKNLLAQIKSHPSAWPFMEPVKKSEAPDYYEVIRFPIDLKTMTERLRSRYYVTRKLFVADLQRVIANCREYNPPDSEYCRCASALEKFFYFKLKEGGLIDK

These molecules were tested against Histone acetyltransferase KAT2A (Homo sapiens) (UniProt Q92830) (assay: qHTS Assay for Inhibitors of GCN5L2). Conditions: GCN5L2 HAT assay, ThioGlo1 CoA-SH fluorescence; activity change, negative = inhibition: at 58.9 µM (top of the series) unless noted.
Summary of the method: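 ThioGlo1-coupled HAT assay: 20nM GCN5L2, 70uM acetyl-CoA, 75uM H3(1-25) peptide, pH 7.5. Fluorescence read at 340/540nm at start and after 20 min at room temperature.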
`COc1ccc(C2=NN(c3ccc(C(=O)O)cc3)C(c3ccc(OC)c(OC)c3)C2)cc1` (stereo unspecified) was tested, and the Potency was inconclusive: 25.1 µM [inhibitor, single point].
With `COc1ccc(CN2CCc3ccccc3C2)c(OC)c1` the “activity change, negative = inhibition” value was inactive: 1.3%.
With `CN(c1ccccc1)c1nc(N)c([N+](=O)[O-])c(NCCO)n1` the “activity change, negative = inhibition” value was inactive: 4.04%.
In the case of `COc1ccc(CN2CN(S(=O)(=O)c3cccs3)c3nc4ccccc4nc32)cc1`, the Potency is reported as inconclusive: 39.8 µM [inhibitor, single point].
For `O=C(O)Cc1ccc(NC(=O)C2CC=CCC2C(=O)O)cc1` (stereo unspecified), the “activity change, negative = inhibition” value was inactive: -9.3%.
With `CCOC(=O)C1CCN(S(=O)(=O)c2ccc3c4c(cccc24)C(=O)N3CC)CC1` the Potency was inconclusive: 28.2 µM [inhibitor, partial curve].
`COc1c2ccoc2nc2c(OC)c(OCC(O)C(C)(C)O)ccc12` (stereo unspecified) was tested, and the Potency was inconclusive: 31.6 µM [inhibitor, single point].
`CC1(C)CC(=O)C2=C(C1)OC(N)=C(C#N)C2c1ccc[nH]1` (stereo unspecified) was tested, and the “activity change, negative = inhibition” value was inactive: -18.7%.
With `CC1=C(CC(=O)c2ccccc2)C(=O)c2ccccc2C1=O` the “activity change, negative = inhibition” value was inactive: -12.4%.
`O=C1CCCC/C1=N\Nc1ccc(C2CCCCC2)cc1` was tested, and the “activity change, negative = inhibition” value was inactive: -15.5%.
`O=C(CN1C(=O)c2cccc3cccc1c23)NCc1cccnc1` was tested, and the Potency was active: 31.6 µM.
In the case of `COC(=O)NC1c2ccccc2Oc2ccccc21`, the “activity change, negative = inhibition” value is reported as inactive: -4.41%.
`Cc1cc(C)cc(NC(=O)CSc2nc3ccccc3nc2N2CCCC2)c1` was tested, and the Potency was inconclusive: 3.98 µM [inhibitor, single point].
In the case of `CC(=O)Nc1ccc(NC(=O)C(C)OC(=O)CC2CCCC2)cc1` (stereo unspecified), the Potency is reported as inconclusive: 0.891 µM [inhibitor, partial curve, poor fit].
In the case of `CCOC(=O)Cc1csc(NC(=O)c2ccc(Cl)nc2)n1`, the Potency is reported as inconclusive: 39.8 µM [inhibitor, single point].
For `O=C(c1ccc(Cl)cc1)N1N=C(c2ccccn2)CC1(O)C(F)(F)F` (stereo unspecified), the Potency was inconclusive: 0.02 µM [inhibitor, full curve, poor fit].
For `O=C(CCl)NC(Cc1ccccc1)c1ccccc1` (stereo unspecified), the “activity change, negative = inhibition” value was inactive: 1.6%.
For `Cc1ccc(S(=O)(=O)c2cn(CC(=O)Nc3ccc4c(c3)OCO4)c3ccccc3c2=O)cc1C`, the Potency was inconclusive: 22.4 µM [inhibitor, partial curve].
`Cc1nc(N2CCc3ccccc3C2)[nH]c(=O)c1Cc1ccccc1` was tested, and the Potency was inconclusive: 31.6 µM [inhibitor, single point].
With `S=c1nccc(-c2ccc(Cl)cc2)[nH]1` the Potency was inconclusive: 25.1 µM [inhibitor, single point].
With `CC(=O)c1c(N2CCN(Cc3ccccc3)CC2)[nH]c(-c2ccccc2)nc1=S` the Potency was inconclusive: 22.4 µM [inhibitor, single point].
